This experiment deals with 5-hydroxytryptamine receptor 2B (Homo sapiens, UniProt P41595).

The chains behind the UniProt entries cited, without tags or fusion partners.
UniProt P41595, whole entry: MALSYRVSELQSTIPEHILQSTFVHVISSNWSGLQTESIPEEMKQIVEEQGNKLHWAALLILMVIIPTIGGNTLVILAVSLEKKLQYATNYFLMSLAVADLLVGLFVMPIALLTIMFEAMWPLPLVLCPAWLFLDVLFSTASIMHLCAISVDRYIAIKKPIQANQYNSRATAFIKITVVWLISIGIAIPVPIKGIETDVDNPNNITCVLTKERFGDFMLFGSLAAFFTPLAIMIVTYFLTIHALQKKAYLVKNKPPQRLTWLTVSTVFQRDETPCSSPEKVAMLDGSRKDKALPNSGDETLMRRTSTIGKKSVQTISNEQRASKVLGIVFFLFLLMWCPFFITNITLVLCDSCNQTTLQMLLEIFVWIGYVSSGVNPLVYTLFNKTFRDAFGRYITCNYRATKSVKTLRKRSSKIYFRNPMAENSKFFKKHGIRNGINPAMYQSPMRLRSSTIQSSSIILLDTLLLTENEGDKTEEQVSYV

The molecule `CC[C@@H](CO)NC(=O)[C@@H]1C=C2c3cccc4c3c(cn4C)C[C@H]2N(C)C1` displayed a Ki of 9.1 nM. In other words, the single-digit nanomolar range.

The values are drawn from BindingDB's records for doi:10.1161/01.cir.102.23.2836 (Nih, 2000).
